Measured values: article PMC9424819, “Evaluation of commonly used cardiovascular drugs in inhibiting vonoprazan metabolism in vitro and in vivo” (Frontiers in Pharmacology, 2022)

Test: Pharmacokinetics of vonoprazan and MI in rats with or without inhibitor pretreatment
Conditions: rats pretreated with 10 mg/kg inhibitor, then 2 mg/kg vonoprazan by gavage

- inhibitory effect on vonoprazan metabolism in vivo: not observed
SMILES: COC(=O)C1=C(C)NC(C)=C(C(=O)OC)C1c1ccccc1[N+](=O)[O-] [Nifedipine, nifedipine]
